Measured data: PubChem BioAssay AID1508588 (Peter MacCallum Cancer Centre, 2020)

Screen: 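Genome-wide search for knock-downs that heighten vemurafenib action in melanoma cells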 (primary screen)
Cell system: human WM266.4 melanoma cells (BRAF V600 mutant)
Knock-down reagent: siRNA pool against human genes, 40 nM
Duration: 96 h from transfection to read-out
Challenge: vemurafenib 300 nM (about IC25), added 48 h after transfection, for 48 h; comparison arm got DMSO vehicle only
Read-out: 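Ratios to non-targeting siRNA for cell gain, counted as DAPI nuclei after minus before drug and averaged over two replicates, and for absorbance-read medium lactate per cell; both binned into fold-change classes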
Direction: cell gain with vemurafenib: higher = more cell gain than with non-targeting siRNA; lactate per cell with vemurafenib: higher = more lactate made per cell
Hit rule: 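Enhancement is called by pairing each knock-down's vehicle-arm and drug-arm fold-change classes for viability or glycolysis; which class combinations qualify is not given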
Meaning of the calls: active = enhances vemurafenib effect; inactive = no enhancement seen
In all, the deposit lists about 18,000 reagents; shown is an unselected part. In the full data, 790 (4.4%) are marked active. 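Calls rest on a combination of fold-change classes in drug and vehicle arms, not all shown here.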 Entries without a mark were called inactive. Reagent sequences are not shown.

CENPV (centromere protein V) — cell gain with vemurafenib = 0.83; lactate per cell with vemurafenib = 0.68
CNRIP1 (cannabinoid receptor interacting protein 1) — cell gain with vemurafenib = 1.02; lactate per cell with vemurafenib = 0.74
ATP23 — cell gain with vemurafenib = 0.89; lactate per cell with vemurafenib = 1.14
ATP10B (ATPase phospholipid transporting 10B (putative)) — cell gain with vemurafenib = 0.76; lactate per cell with vemurafenib = 0.52
CFAP141 (cilia and flagella associated protein 141) — cell gain with vemurafenib = 0.57; lactate per cell with vemurafenib = 0.54
VTN (vitronectin) — cell gain with vemurafenib = 0.37; lactate per cell with vemurafenib = 1.7

No new results follow: entries from further up.
CFAP141 (cilia and flagella associated protein 141) — cell gain with vemurafenib = 0.57; lactate per cell with vemurafenib = 0.54
VTN (vitronectin) — cell gain with vemurafenib = 0.37; lactate per cell with vemurafenib = 1.7

Continued:
SLC4A1AP — cell gain with vemurafenib = 0.82; lactate per cell with vemurafenib = 1.05
PIM2 (Pim-2 proto-oncogene, serine/threonine kinase) — cell gain with vemurafenib = 0.16; lactate per cell with vemurafenib = 2.17
WDR64 (WD repeat domain 64) — cell gain with vemurafenib = 0.8; lactate per cell with vemurafenib = 0.96
OTUD6B (OTU deubiquitinase 6B) — cell gain with vemurafenib = 0.82; lactate per cell with vemurafenib = 0.9
FAM216A (family with sequence similarity 216 member A) — cell gain with vemurafenib = 0.28; lactate per cell with vemurafenib = 1.14
AKR7A3 (aldo-keto reductase family 7 member A3) — cell gain with vemurafenib = 0.17; lactate per cell with vemurafenib = 1.77
PRAMEF6 (PRAME family member 6) — cell gain with vemurafenib = 0.15; lactate per cell with vemurafenib = 0.6
SSR3 (signal sequence receptor subunit 3) — cell gain with vemurafenib = 0.37; lactate per cell with vemurafenib = 0.88
ZNF586 (zinc finger protein 586) — cell gain with vemurafenib = 0.15; lactate per cell with vemurafenib = 1.07
HYOU1 (hypoxia up-regulated 1) — cell gain with vemurafenib = 0.99; lactate per cell with vemurafenib = 0.97
